PubChem BioAssay AID1259308 | NCATS, 2017
Screen: 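Candidate targets for better recombinant protein yield in mammalian cells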 (primary screen). System: human HEK293 embryonic kidney cells stably expressing firefly luciferase (HEK-CMV-Luc2-Hygro). Reagent: single siRNA against human genes, 0.8 pmol siRNA per well. Timing: 72 h. Measured: 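Reporter luminescence and viable-cell signal on separate replicate plates, given as percent of non-targeting control and median/MAD z-scores, plus per-cell luciferase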. Direction: total luciferase, z-score and total luciferase, % of control: higher = more reporter protein produced; luciferase per cell, z-score: higher = more reporter output per viable cell; viable cells, % of control: higher = more viable cells. Rule for the call: 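Active when the median/MAD z-score for overall luciferase is greater than 3; a gene was taken forward for validation with new siRNAs if at least two of its three siRNAs passed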. Meaning of the calls: active = raised luciferase; inactive = no rise.
Here is one part, drawn at random, of about 59,000 reagents tested. Of all reagents, about 1,510 (2.6%) got an active call. 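Calls use total luciferase alone and ignore viability, so some active siRNAs may act by altering cell number.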 The numbers tell different reagents against one gene apart.

gene	reagent	total luciferase, z-score	total luciferase, % of control	luciferase per cell, z-score	viable cells, % of control	activity call
ZBTB42 (GeneID 100128927)	1	-0.986	62.3	-1.23	96.1	inactive
ZBTB42 (GeneID 100128927)	2	1.06	103	0.94	89.9	inactive
ZBTB42 (GeneID 100128927)	3	-1.06	60.7	-1.63	104	inactive
SLC4A8 (GeneID 9498)	1	-0.478	72.4	-0.268	86.8	inactive
SLC4A8 (GeneID 9498)	2	-0.0114	81.7	0.329	83.7	inactive
SLC4A8 (GeneID 9498)	3	-0.822	65.5	-1.35	104	inactive
AUTS2 (GeneID 26053)	1	1.25	107	0.937	93.2	inactive
AUTS2 (GeneID 26053)	2	-0.743	67.1	1.02	57.3	inactive
AUTS2 (GeneID 26053)	3	0.383	89.5	0.446	88.9	inactive
DCTN3 (GeneID 11258)	1	1.9	120	1.63	87.2	inactive
DCTN3 (GeneID 11258)	2	-0.357	74.8	-0.593	97.7	inactive
DCTN3 (GeneID 11258)	3	0.757	96.9	1.12	80.6	inactive
CAPNS2 (GeneID 84290)	1	-0.465	72.6	-0.801	100	inactive
CAPNS2 (GeneID 84290)	2	-0.0458	81	-0.588	106	inactive
CAPNS2 (GeneID 84290)	3	0.163	85.1	-0.455	107	inactive
APOBEC3F (GeneID 200316)	1	0.611	94	0.917	82.5	inactive
APOBEC3F (GeneID 200316)	2	-1.5	52	-1	75.7	inactive
APOBEC3F (GeneID 200316)	3	-1.36	54.8	-1.57	92.5	inactive
RNASE10 (GeneID 338879)	1	0.99	102	1.49	76.7	inactive
RNASE10 (GeneID 338879)	2	-0.426	73.4	-0.653	97.4	inactive
RNASE10 (GeneID 338879)	3	0.218	86.2	0.294	89.2	inactive
SPEG (GeneID 10290)	1	0.0671	83.2	0.552	80.4	inactive
SPEG (GeneID 10290)	2	0.328	88.4	0.857	78.8	inactive
SPEG (GeneID 10290)	3	-0.539	71.2	-0.537	91.6	inactive
OR14A16 (GeneID 284532)	1	1.29	108	0.545	104	inactive
OR14A16 (GeneID 284532)	2	-0.116	79.6	0.342	81.3	inactive
OR14A16 (GeneID 284532)	3	2.56	133	2.19	83.5	inactive
EFCC1 (GeneID 79825)	1	2.31	128	2.12	81.8	inactive
EFCC1 (GeneID 79825)	2	-0.119	79.5	0.391	80.2	inactive
EFCC1 (GeneID 79825)	3	-0.203	77.9	0.124	84.2	inactive
EFCC1 (GeneID 79825)	4	-0.109	79.7	-0.119	91.9	inactive
EFCC1 (GeneID 79825)	5	0.246	86.8	-0.402	108	inactive
EFCC1 (GeneID 79825)	6	0.0834	83.5	-0.631	110	inactive
H3C1 (GeneID 8350)	1	0.735	96.5	0.481	95	inactive
H3C1 (GeneID 8350)	2	-0.897	64.1	0.69	59.7	inactive
H3C1 (GeneID 8350)	3	0.122	84.3	0.00701	94	inactive
ITIH2 (GeneID 3698)	1	-0.817	65.6	-1.11	98.2	inactive
ITIH2 (GeneID 3698)	2	0.776	97.3	0.9	85.8	inactive
ITIH2 (GeneID 3698)	3	-1.38	54.4	-1.3	85.7	inactive
C1orf105 (GeneID 92346)	1	0.617	94.2	0.361	95.7	inactive
C1orf105 (GeneID 92346)	2	-1.43	53.4	0.337	54.7	inactive
C1orf105 (GeneID 92346)	3	-0.996	62.1	0.947	54.1	inactive
CLU (GeneID 1191)	1	-0.47	72.5	-1.08	108	inactive
CLU (GeneID 1191)	2	0.308	88	0.361	89.4	inactive
CLU (GeneID 1191)	3	-0.609	69.8	-0.148	81.1	inactive
CTBP1 (GeneID 1487)	1	3.24	146	2.75	79.3	active
CTBP1 (GeneID 1487)	2	0.0289	82.5	0.106	89.6	inactive
CTBP1 (GeneID 1487)	3	2.59	133	1.72	94.7	inactive
RPSAP20 (GeneID 127406)	1	-2.21	37.9	-2.07	72.9	inactive
RPSAP20 (GeneID 127406)	2	-3.13	19.7	-2.53	42.8	inactive
RPSAP20 (GeneID 127406)	3	0.947	101	1.2	82	inactive
HPCAL4 (GeneID 51440)	1	-0.304	75.8	-0.308	91.9	inactive
HPCAL4 (GeneID 51440)	2	0.123	84.3	1.75	59.4	inactive
HPCAL4 (GeneID 51440)	3	-0.117	79.6	0.954	69.2	inactive
RLBP1 (GeneID 6017)	1	0.897	99.7	2.29	61.1	inactive
RLBP1 (GeneID 6017)	2	0.719	96.2	0.571	92.5	inactive
RLBP1 (GeneID 6017)	3	-1.01	61.7	-1.42	100	inactive
ARHGAP15 (GeneID 55843)	1	1.26	107	1.04	90.9	inactive
ARHGAP15 (GeneID 55843)	2	0.0144	82.2	-0.401	102	inactive
ARHGAP15 (GeneID 55843)	3	0.26	87.1	-0.103	100	inactive
TMEM14A (GeneID 28978)	1	1.26	107	0.655	101	inactive
TMEM14A (GeneID 28978)	2	0.669	95.2	1.12	79.1	inactive
TMEM14A (GeneID 28978)	3	1.71	116	0.302	120	inactive
CDC16 (GeneID 8881)	1	-0.428	73.4	-0.243	87.4	inactive
CDC16 (GeneID 8881)	2	-0.0543	80.8	-0.0409	91.3	inactive
CDC16 (GeneID 8881)	3	2.22	126	1.69	90.3	inactive
TCEAL6 (GeneID 158931)	1	-1.7	48	-1.12	72.1	inactive
TCEAL6 (GeneID 158931)	2	-1.06	60.8	-1.35	96.9	inactive
TCEAL6 (GeneID 158931)	3	0.876	99.3	0.979	85.8	inactive
SENP2 (GeneID 59343)	1	-1.37	54.6	-1.26	85	inactive
SENP2 (GeneID 59343)	2	0.322	88.3	0.277	91.7	inactive
SENP2 (GeneID 59343)	3	-0.057	80.8	-0.561	105	inactive
STYXL2 (GeneID 92235)	1	3.49	151	3.3	70.8	active
STYXL2 (GeneID 92235)	2	-0.822	65.5	-0.431	82	inactive
STYXL2 (GeneID 92235)	3	-0.497	72	-0.347	88.2	inactive

A few values from the entries so far:
Value for CLU (GeneID 1191) #1 in “activity call”: inactive
TCEAL6 (GeneID 158931) #1, luciferase per cell, z-score = -1.12
Result for OR14A16 (GeneID 284532) #3 in “luciferase per cell, z-score”: 2.19
ZBTB42 (GeneID 100128927) #1, viable cells, % of control: 96.1
Under “luciferase per cell, z-score”, CAPNS2 (GeneID 84290) #3 has -0.455
For “viable cells, % of control”, EFCC1 (GeneID 79825) #4 reads 91.9
